{"source": "patent US9827320B2", "about": "“Compositions with reduced bitter taste perception” (The Procter & Gamble Company, priority 2014, dated 2017)", "system": "Human fungiform taste bud cells", "assay": "Assay for Taste Receptors (calcium fluorescence, FLIPR)", "assay_type": "cell-based", "details": "FIG. 5A; 0.2 mM, without polyquaternium-2", "note": "Some entries share one result that the patent states for a list of compounds."}
{"smiles": "NCC(=O)c1ccccc1", "note": "[2-aminoacetophenone]", "values": [{"measurement": "bitterness of the composition itself", "value": "over 6000 FUs"}]}
{"smiles": "C=C(C)C1CCC(C)(O)CC1", "note": "(stereo not drawn) [beta-terpineol]", "values": [{"measurement": "bitterness of the composition itself", "value": "over 6000 FUs"}]}
